Test results: PubChem BioAssay AID1671190 (National Center for Advancing Translational Sciences (NCATS), 2021)
Hit rate of the full screen: of about 580,000 compounds, about 6,100 (1.1%) were called active. The inconclusive results got no clear call from the source; some entries with a clear call stand among them for comparison. The call rests on the fitted dose curve; in most records, active means well fitted inhibition curve with a large enough effect; inconclusive means small, poorly fitted or top-dose-only effect, or another doubt; inactive means no such curve, though single readings can be large or run the other way. A potency beside an inconclusive call is a rough fit, not a confirmed value.

The chains behind the UniProt entries cited, without tags or fusion partners.
UniProt P18054, whole entry, looked up: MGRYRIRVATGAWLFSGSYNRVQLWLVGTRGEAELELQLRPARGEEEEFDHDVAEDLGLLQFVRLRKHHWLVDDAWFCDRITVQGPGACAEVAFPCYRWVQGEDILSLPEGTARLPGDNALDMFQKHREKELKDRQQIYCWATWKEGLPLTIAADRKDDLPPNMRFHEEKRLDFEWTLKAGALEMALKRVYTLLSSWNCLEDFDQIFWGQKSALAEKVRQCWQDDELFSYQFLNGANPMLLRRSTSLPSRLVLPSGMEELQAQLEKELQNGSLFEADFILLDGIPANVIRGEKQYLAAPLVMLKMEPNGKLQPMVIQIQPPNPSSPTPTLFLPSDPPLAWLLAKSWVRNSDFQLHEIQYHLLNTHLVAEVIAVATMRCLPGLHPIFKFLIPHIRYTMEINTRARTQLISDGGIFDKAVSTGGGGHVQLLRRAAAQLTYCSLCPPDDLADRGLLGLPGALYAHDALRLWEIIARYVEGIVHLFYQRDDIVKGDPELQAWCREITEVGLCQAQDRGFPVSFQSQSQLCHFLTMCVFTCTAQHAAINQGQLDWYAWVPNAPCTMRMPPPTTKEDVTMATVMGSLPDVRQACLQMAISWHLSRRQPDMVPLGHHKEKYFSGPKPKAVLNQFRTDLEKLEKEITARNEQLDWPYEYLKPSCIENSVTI

Molecular target: Polyunsaturated fatty acid lipoxygenase ALOX12 (Homo sapiens) (UniProt P18054)
Assay: Primary qHTS assay for inhibitors of human arachidonate 12S-lipoxygenase (ALOX12): Round 2
Details: purified 12hLO, xylenol orange hydroperoxide absorbance; activity change, negative = inhibition: at 108 µM (top of the series) unless noted
Outline: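 Purified human 12hLO (150 nM final) in 25 mM Hepes, 0.01% Triton X-100, pH 7.0 was preincubated 15 min at room temperature with compound. Then 40 uM arachidonic acid was added, 30 min. Hydroperoxide was read by Fe-XO absorbance ratio 573/405 nm.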
On the % scale 0 is the no-effect control and ±100 the full control effect; potency means the concentration at half of the fitted maximal effect.

SMILES | Potency | activity change, negative = inhibition
Cc1ccc(NS(=O)(=O)c2cccc3nsnc23)cc1C | inconclusive: 100 µM [inhibitor, single point] | 
COc1ccc(SC[C@H](Cc2ccccc2)N2CCN(C)CCC2=O)cc1 |  | inactive: 11.1%
CCC1CCCCN1C(=S)NN=C(C)c1ccccn1 (stereo not drawn) | inconclusive: 39.8 µM [inhibitor, partial curve, poor fit] | 
CCOC(=O)c1ccc(NC(=O)c2cc(=O)c3cc(CC)ccc3o2)cc1 | inconclusive: 89.1 µM [inhibitor, single point] | 
COc1ccc(CNC(=O)C[C@H]2C[C@H](C(=O)N3CCOCC3)[C@@]3(CCC4CCCC4)c4[nH]c5cc(-c6ccco6)ccc5c4CCN3C2=O)cc1OC | active: 39.8 µM | 
Cc1nnc(NC(=O)CN2C(=O)NC3(CCCC3)C2=O)s1 | inconclusive: 56.2 µM [inhibitor, partial curve, poor fit] | 
O=C(/C=C/c1c(Cl)cccc1Cl)c1ccc(OC(F)F)cc1OC(F)F | inconclusive: 56.2 µM [inhibitor, partial curve, poor fit] | 
O=C(NCc1ccccc1)C(c1ccncc1)N(C(=O)c1ccccn1)c1ccccc1 (stereo not drawn) | inconclusive: 0.447 µM [inhibitor, full curve, poor fit] | 
O=C1[C@H]2[C@@H](c3ccc(C(F)(F)F)cc3)N[C@]3(CCCN(Cc4ccccc4)C3=O)[C@H]2C(=O)N1Cc1ccccc1 | inconclusive: 44.7 µM [inhibitor, partial curve, poor fit] | 
Cc1ccc(NC(=O)C2CCCN(c3nnc(-n4c(C)ccc4C)s3)C2)cc1Cl (stereo not drawn) | inactive | 
N/C(=C\C(=O)/C=C/c1cccs1)C(Cl)(Cl)Cl | inconclusive: 112 µM [inhibitor, partial curve, poor fit] | 
COc1ccc(CC(N)c2csc(NC(=O)C(c3ccccc3)c3ccccc3)n2)cc1 (stereo not drawn) | inconclusive: 79.4 µM [inhibitor, partial curve, poor fit] | 
CCCCCN(CCCCC)C(=S)Nc1ccc(Br)cc1Cl |  | inconclusive: -45.4% [inhibitor]
CC(C)COc1ccc(C(=O)N2CCCCC2CCN2CCCCCC2)cc1 (stereo not drawn) | active: 7.08 µM | 
Fc1ccc([C@H]2CCNC[C@H]2COc2ccc3c(c2)OCO3)cc1 | inconclusive: 39.8 µM [inhibitor, partial curve, poor fit] | 
CN(C)S(=O)(=O)c1ccc2c(c1)C(CC(=O)O)NC2=O (stereo not drawn) | inconclusive: 35.5 µM [inhibitor, partial curve, poor fit] | 
CCn1cc(C(=O)O)c(=O)c2cc(F)c(N3CCN(C(=S)NC(=O)c4c(OC)cccc4OC)CC3)cc21 | inconclusive: 28.2 µM [inhibitor, full curve, poor fit] | 
Clc1ccc(-c2nnc3n2CCN(CC2CCCCC2)C3)cc1 |  | inactive: 3.11% [at 6.33 µM]
O=C1CN(c2ccccc2)C(=O)N1Cc1ncc(-c2ccccc2)o1 |  | inactive: 0.74%
N=c1c2c(-c3ccccc3)c(-c3ccccc3)n(Cc3ccco3)c2ncn1Cc1ccco1 | inconclusive: 100 µM [inhibitor, single point] | 
Cc1nn(-c2ccccc2)c(N2CCCC2)c1/C=N/NC(=S)Nc1ccccc1F | inconclusive: 25.1 µM [inhibitor, partial curve, poor fit] | 

SMILES | Potency | activity change, negative = inhibition
CC(=O)Nc1ccc(N2Cc3ccccc3C2)cc1 | inconclusive: 4.47 µM [inhibitor, full curve, poor fit] | 
C/C(CC(=O)Nc1ccc(Cl)c(C(F)(F)F)c1)=N\NC(=O)c1ccccc1O |  | inactive: -19.5%
O=C(c1ccco1)N1CCN(CCCCOc2cccc3ccccc23)CC1 | active: 44.7 µM | 
O=C(CSc1nc(O)cc(=O)n1-c1ccccc1)Nc1ccc2c3c(cccc13)CC2 | inconclusive: 28.2 µM [inhibitor, partial curve] | 
CC12CC3(C)CC(CN)(C1)CC(CCN)(C2)C3 |  | inactive: -21.2%
CCOCCOC(=O)COc1ccc2c(=O)c(Oc3ccccc3Cl)coc2c1 |  | inactive: -43.4%
O=C(Nc1cccs1)Nc1ccccc1Cl | inconclusive: 39.8 µM [inhibitor, partial curve, poor fit] | 
O=C(COC(=O)c1ccccn1)Nc1ncc(C(F)(F)F)cc1Cl | inconclusive: 6.31 µM [inhibitor, partial curve, poor fit] | 
Cc1ccc(CS(=O)CCC(=O)Nc2ccccc2)cc1 (stereo not drawn) | inconclusive: 56.2 µM [inhibitor, partial curve, poor fit] | 
O=C(c1ccccc1)c1nnc(-c2ccncc2)o1 | inconclusive: 141 µM [inhibitor, single point] | 
Cc1ccc(C)n1-c1c(C(=O)N2CCCC2)sc2ncccc12 | inconclusive: 17.8 µM [inhibitor, full curve, poor fit] | 
O=C1NC(=O)/C(=C\c2cn(Cc3ccccc3F)c3ccccc23)N1 | inconclusive: 3.98 µM [inhibitor, full curve] | 
COC(=O)[C@@]12C[C@@H](CC(=O)NCCC(C)C)C(=O)N(Cc3ccccc3)C1=CCC(C)(C)C2 | inconclusive: 44.7 µM [inhibitor, partial curve, poor fit] | 
CCN(CC)CCN1C(=O)C(=O)/C(=C(/O)c2ccc(OC(C)C)cc2)C1c1ccncc1 (stereo not drawn) | inconclusive: 35.5 µM [inhibitor, single point] | 
O=[N+]([O-])c1cc(-c2csc(NCCc3nc4cc(C(F)(F)F)ccc4n3CCCO)n2)ccc1Cl |  | inactive: -16.5%
O=C(c1cc(F)cc(F)c1)N1CCC(c2n[nH]c(=O)n2-c2ccccc2)CC1 | inconclusive: 44.7 µM [inhibitor, partial curve] | 
CCCCC1(C)OC(=O)C(=Cc2ccc(N(CC)CC)cc2)C(=O)O1 (stereo not drawn) | inconclusive: 79.4 µM [inhibitor, single point] | 
Cc1cc(=O)c2c(ccc3c(=O)cc(C)[nH]c32)[nH]1 | inconclusive: 141 µM [inhibitor, single point] | 
COc1ccc(NC(=O)COC(=O)c2ccc3ccccc3n2)c(OC)c1 | inconclusive: 50.1 µM [inhibitor, partial curve, poor fit] | 
NC(=O)CN1CCN(c2nc(-c3ccc(F)cc3)cs2)CC1 |  | inactive: -6.07%
COc1cc(/C=N/NC(=O)c2ccccc2O)ccc1OCC(=O)Nc1ccccc1 | inconclusive: 112 µM [inhibitor, single point] | 

Whole records as entered above.
Cc1cc(=O)c2c(ccc3c(=O)cc(C)[nH]c32)[nH]1 is listed as Potency: inconclusive: 141 µM [inhibitor, single point]
COc1cc(/C=N/NC(=O)c2ccccc2O)ccc1OCC(=O)Nc1ccccc1 is listed as Potency: inconclusive: 112 µM [inhibitor, single point]

(cont.)

SMILES | Potency | activity change, negative = inhibition
CCOC(=O)c1ccc(Oc2c(C(F)(F)F)oc3cc(OS(C)(=O)=O)ccc3c2=O)cc1 | inconclusive: 31.6 µM [inhibitor, partial curve, poor fit] | 
O=c1c2c(nc3cc[nH]n13)CN(S(=O)(=O)c1cccc(C(F)(F)F)c1)CC2 |  | inactive: -14.7%
CCOc1ccc2c(c1)sc(N)[n+]2Cc1cc(C)cc2cccnc12 | inconclusive: 15.8 µM [inhibitor, partial curve, poor fit] | 
COC(=O)C(C(=O)OC)C(c1ccc(Br)cc1)C(C)C(=O)c1ccc(C)cc1C (stereo not drawn) |  | inactive: 90.6%
CN(C)c1ccc(CN2CC[C@H](c3nc4c(C(N)=O)cccc4[nH]3)C2)cc1 |  | inactive: 19.7% [at 176 µM]
CC(C)(C)c1ccc(C(=O)Oc2ccc(/C=N/O)cc2)cc1 | inconclusive: 89.1 µM [inhibitor, single point] | 
O=C(Nc1cccc(N=Cc2cc(Br)cc(Br)c2O)c1)c1ccco1 | inconclusive: 44.7 µM [inhibitor, partial curve, poor fit] | 
Cc1cc(C(=O)NNC(=S)NC(=O)/C=C/c2ccccc2Cl)n[nH]1 | inconclusive: 35.5 µM [inhibitor, partial curve] | 
Cc1nc(CN2C(=O)OC3(CCN(CCCc4ccccc4)CC3)C2(C)c2ccccc2)cs1 (stereo not drawn) | inconclusive: 25.1 µM [inhibitor, full curve, poor fit] | 
COc1ccc(S(=O)(=O)Nc2ccc3c(c2)CCN3C(=O)c2cccnc2)c(C)c1 | inconclusive: 50.1 µM [inhibitor, partial curve, poor fit] | 
CCc1ccccc1OCCN1CCN(c2ccc(C#N)cc2)C(=O)C1 | inconclusive: 39.8 µM [inhibitor, partial curve, poor fit] | 
COc1ccc(CNC(=O)C(C)SCCO)cc1OC (stereo not drawn) |  | inactive: -3.59%
CCOc1ccc(/C=N/OCc2c(Cl)cccc2Cl)cc1OC | inconclusive: 44.7 µM [inhibitor, partial curve, poor fit] | 
CCN(CC(=O)Nc1ccc(NC(C)=O)cc1)C(=O)Cc1ccccc1F |  | inconclusive: -36.6% [inhibitor]
Cc1ccc(C(C)(C)C)cc1SC(C(N)=O)c1ccccc1 (stereo not drawn) | inconclusive: 63.1 µM [inhibitor, partial curve, poor fit] | 
O=C(c1ccc2ncsc2c1)N1CCN(c2ccc(O)cc2)CC1 | inconclusive: 44.7 µM [inhibitor, partial curve, poor fit] | 
Cn1c2ccccc2c2cc(/C=N/NC(=O)c3cc(O)ccc3O)ccc21 | active: 35.5 µM | 
CCc1ccc(NC(=O)N(Cc2ccc(C)cc2)Cc2cccn2-c2nnc(N3CCCC3=O)s2)cc1 |  | inactive: -16.7%
CCOC(=O)c1cc(NC(=O)c2cccnc2)cc(C(=O)OCC)c1 | inconclusive: 50.1 µM [inhibitor, partial curve, poor fit] | 
Cc1ccccc1NC(=O)CN1C(=S)NC(C)(C)CC1C (stereo not drawn) | inconclusive: 50.1 µM [inhibitor, partial curve, poor fit] | 
CC(C)C(=O)N1Cc2ccccc2CC2(CCCN(CC3CCNC3)C2)C1 (stereo not drawn) | inconclusive: 35.5 µM [inhibitor, partial curve, poor fit] | 

Ordered by molecular weight (largest number first): some entries from above.
SMILES | Potency | activity change, negative = inhibition
COC(=O)C(C(=O)OC)C(c1ccc(Br)cc1)C(C)C(=O)c1ccc(C)cc1C (stereo not drawn) |  | inactive: 90.6%
O=C(NCc1ccccc1)C(c1ccncc1)N(C(=O)c1ccccn1)c1ccccc1 (stereo not drawn) | inconclusive: 0.447 µM [inhibitor, full curve, poor fit] | 
CCOc1ccc(/C=N/OCc2c(Cl)cccc2Cl)cc1OC | inconclusive: 44.7 µM [inhibitor, partial curve, poor fit] | 
CC12CC3(C)CC(CN)(C1)CC(CCN)(C2)C3 |  | inactive: -21.2%
